The text below walks through data of PubChem BioAssay AID445 (National Center for Advancing Translational Sciences (NCATS), 2006).

This is one part of the list. The main result of the screen is listed elsewhere. These columns were measured beside it and carry no call. Most of these compounds were active or inconclusive in the main read-out, so they are no random draw. Potencies come from curve fits of mixed quality, noted in brackets.

This assay is described as follows: IkB Signaling. The conditions noted are these: ABC-DLBCL IkBa-CBG/CBR dual luciferase ratio (green luciferase fused to IkBa over red control in OCI-Ly3 lymphoma cells), 4 h; measured here: control luc red channel unless noted. The procedure, abridged:
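Curves were fitted separately to fusion (green), unfused (red) and ratio luminescence, then classed by r2, magnitude and activity. Cells: OCI-Ly3, 4 h compound plus doxycycline at 37C; 10 uM MG-132 defined full response.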
`CC(=O)c1ccc(NC(=O)c2nn(C)c3c2COc2ccccc2-3)cc1`: the concentration at half-maximal activity (AC50) is 20 µM [falling, single point].
`Oc1c(C(Nc2ccccn2)c2ccccn2)ccc2cccnc12` (stereo not drawn): the half-maximal activity concentration (AC50) was 3.16 µM [falling, partial curve].
Take `CCOc1ccccc1NC(=O)N1CCC(N2CCN(Cc3ccccc3)C(=O)C2=O)CC1`: the AC50 is 0.00631 µM [rising, full curve].
Under `CC(Oc1ccccc1F)C(=O)N1CCC(c2nc3ccccc3o2)CC1` (stereo not drawn) stands 25.1 µM [falling, single point].
Under `O=c1c(O)c(-c2cccs2)oc2ccccc12` stands 25.1 µM [rising, partial curve] [measured here: IkB-luc green channel].
For `CCC1CCCCN1C(=O)CSc1nc(-c2ccc(OC)cc2)cc(C(F)(F)F)n1` (stereo not drawn) the value was 31.6 µM [falling, single point]; for `CCn1cc2nc(SCC(=O)Nc3cccc(Cl)c3C)n(Cc3ccc(Cl)cc3)c(=O)c2n1`, 5.01 µM [falling, full curve].
Regarding `O=C(C1CC1)N1CCc2cc(Br)cc(S(=O)(=O)Nc3ccc(C(F)(F)F)cc3)c21`, the concentration at half-maximal activity (AC50) was 3.16 µM [falling, full curve].
On to `COc1ccc(NC(=O)C(=O)NCCc2csc3nc(-c4ccccc4C)nn23)cc1`, for which the half-maximal activity concentration (AC50) is 39.8 µM [falling, single point].
`CCOc1ccc(-n2nc3ccc(NC(=O)COc4ccccc4C)cc3n2)cc1`: the AC50 was 39.8 µM [falling, single point].
For the molecule `COc1ccc(S(=O)(=O)N(CCc2ccccc2)CC(=O)NCc2ccc(C)cc2)cc1`, the AC50 was 6.31 µM [falling, partial curve].
For `CCCC(=O)Nc1nnc(S(=O)(=O)N(C)c2ccccc2)s1` the value was 0.316 µM [rising, full curve].
For `COc1ccccc1CCNC(=O)C1CCN(c2nc3ccccc3nc2C(F)(F)F)CC1` the value was 0.02 µM [rising, full curve, poor fit].
For `C=CCn1c(CCC(=O)O)ccc1-c1ccc(OC)cc1`, the AC50 is 25.1 µM [falling, partial curve].
Under `COC(=O)c1ccccc1NC(=O)CSc1c2c(nc3ccc(Cl)cc13)CCCC2` stands 10 µM [falling, partial curve].
For `Cc1cc(C)c(S(=O)(=O)Nc2ccc(-c3ccc(N4CCCCC4)nn3)cc2)cc1C` the value was 3.16 µM [falling, full curve].
For `O=C(NCC(c1cccnc1)N1CCN(Cc2ccccc2)CC1)C(=O)Nc1ccc(F)cc1` (stereo not drawn) the value was 1.58 µM [rising, partial curve]; for `CCc1ccc(S(=O)(=O)Nc2ccc3oc(C)c(C(=O)OCCOC)c3c2)cc1`, 31.6 µM [falling, single point].
Regarding `Cc1cccc(NC(=O)c2cc3c(C)nn(-c4ccccc4)c3s2)c1`, the half-maximal activity concentration (AC50) is 20 µM [falling, partial curve].
Under `O=C(NCc1ccc2c(c1)CCN2C(=O)c1ccncc1)c1cccc(F)c1` stands 31.6 µM [falling, single point]; under `O=C1CN(c2nc3ccccc3n3cnnc23)CC(=O)N1CCc1ccccc1`, 15.8 µM [falling, partial curve].
Under `CCOC(=O)c1[nH]c(C)c(C(=O)NCc2ccccc2Cl)c1C` stands 15.8 µM [falling, partial curve]; under `Nc1nc2ccccc2n1C(=O)CCc1ccccc1`, 10 µM [falling, partial curve].
Turning to `COc1ccc(NC(=O)c2ccc(-c3nc(CSc4ccccc4)c(C)o3)cc2)c(OC)c1`, the AC50 was 10 µM [falling, partial curve].
Under `CCCCN(c1ccccc1)S(=O)(=O)c1cc2c3c(c1)C(C)C(=O)N3CCC2` (stereo not drawn) stands 15.8 µM [falling, partial curve].
As for `CCN1C(=O)c2ccccc2S(=O)c2ccc(C(=O)N3CCN(c4cccc(Cl)c4)CC3)cc21` (stereo not drawn), the concentration at half-maximal activity (AC50) is 31.6 µM [falling, single point].
Under `COCCn1c(=S)[nH]c2cc(C(=O)N3CCc4ccccc43)ccc2c1=O` stands 3.98 µM [falling, partial curve].
For `COC(=O)c1cc(NC(=O)CCc2c(C)nc3nc(C)nn3c2C)cc(C(=O)OC)c1` the value was 15.8 µM [falling, partial curve]; for `CCOC(=O)c1ccc(NC(=O)c2cc3ccccc3o2)cc1`, 0.1 µM [falling, full curve]; for `O=C(Cc1ccc(F)cc1)NCCc1csc2nc(-c3ccc(Cl)cc3)nn12`, 39.8 µM [falling, single point].
Under `Cc1cccc(CC(=O)Nc2cccc(-c3cn4cccnc4n3)c2)c1` stands 39.8 µM [falling, partial curve, poor fit].
In the case of `COc1ccc(C(=O)c2no[n+]([O-])c2C(=O)c2ccc(OC)cc2)cc1`, the AC50 is 6.31 µM [falling, full curve].
Regarding `Cc1ccc(CNC(=O)CCCn2nc(C)n3c(cc4sccc43)c2=O)cc1`, the concentration at half-maximal activity (AC50) is 0.251 µM [rising, full curve, poor fit].
Under `Cc1ccc(C(=O)CSc2nnc(-c3ccco3)n2CC2CCCO2)cc1` (stereo not drawn) stands 31.6 µM [falling, single point].
For `CCOC(=O)c1cccc(NC(=O)NC2COc3ccccc3C2)c1` (stereo not drawn) the value was 0.0398 µM [rising, full curve, poor fit].
Under `COc1cc(NC(=O)C2CCN(S(=O)(=O)c3c(C)noc3/C=C/c3c(C)cc(C)cc3C)CC2)cc(OC)c1` stands 39.8 µM [falling, single point]; under `COc1ccc(OC)c(CNc2ncc(-c3ccc(Cl)cc3)n2C)c1`, 10 µM [falling, partial curve].
As for `Cc1cccc(C)c1NC(=O)c1cc2sccc2n1Cc1ccc(F)cc1`, the concentration at half-maximal activity (AC50) is 3.98 µM [rising, partial curve].
Consider `Cc1ccccc1CN1C(=O)c2ccccc2Sc2ccc(C(=O)NCCCN3CCOCC3)cc21`, for which the AC50 is 15.8 µM [falling, partial curve].
On to `Cc1ccc(Sc2c(C)nn(-c3ccccc3)c2OC(=O)CC(C)C)cc1`, for which the AC50 is 3.98 µM [falling, partial curve].
Turning to `CC(=O)c1ccc(S(=O)(=O)Nc2cccc(-c3ccc(N4CCCC4)nn3)c2)cc1`, the AC50 is 25.1 µM [falling, partial curve, poor fit].
For `CCOc1ccc(C2c3[nH]c4ccccc4c3CCN2C(=O)CCC2CCCC2)cc1` (stereo not drawn), the concentration at half-maximal activity (AC50) was 0.794 µM [falling, full curve].
For the molecule `O=c1cc(-c2ccccc2)nc(SCc2nc(-c3cccc(C(F)(F)F)c3)no2)[nH]1`, the half-maximal activity concentration (AC50) was 39.8 µM [falling, partial curve].
Regarding `CCN(CCCNC(=O)CN1N=C(c2ccc(C)cc2)CCC1=O)c1ccccc1`, the AC50 is 31.6 µM [falling, single point].
For `CCCCN(CC)C(=O)Cn1cc2c(n1)-c1c(oc(C(=O)N3CCCC3)c1C)CC2` the value was 31.6 µM [falling, single point]; for `Cc1c(C#N)c2ccccc2n1CC(=O)NCCc1c[nH]c2ccccc12`, 20 µM [falling, partial curve]; for `COC(=O)COc1ccc(S(=O)(=O)Nc2ccc3c(c2)OCO3)cc1Cl`, 15.8 µM [falling, partial curve].
As for `COc1ccc(CNC(=O)C2CCN(c3nnc(C)c4c(C)n(-c5ccc(C)cc5)nc34)CC2)cc1`, the AC50 is 20 µM [falling, partial curve].
For `Cc1ccc(-c2nn3c(C)nnc3c3ccccc23)cc1S(=O)(=O)NC(C)(C)CO` the value was 3.16 µM [rising, full curve] [measured here: IkB-luc green channel]; for `COc1ccc(OC)c(-c2cc(C(=O)NCc3ccc(Cl)cc3)no2)c1`, 3.98 µM [rising, partial curve, poor fit]; for `N#C/C(=C\c1ccc(O)c(O)c1)C(N)=O`, 39.8 µM [falling, partial curve].
For `CCOc1ccc(N(C)S(=O)(=O)c2cc(-c3cnc(C)o3)ccc2OC)cc1` the value was 31.6 µM [falling, single point].
Under `COc1ccc(/C=C/C(=O)Nc2cccc(F)c2)cc1` stands 7.94 µM [falling, partial curve].
Regarding `CC1CCCN(c2ncnc3c2nnn3C)C1` (stereo not drawn), the concentration at half-maximal activity (AC50) was 20 µM [rising, single point].
Turning to `CCCOC(=O)c1cccc(Nc2nc(C(=O)OCC)nc3ccccc23)c1`, the half-maximal activity concentration (AC50) was 12.6 µM [falling, partial curve].
Under `CCC1CN(C(=O)N2CCC(C(=O)NCc3ccccc3F)CC2)c2ccccc2O1` (stereo not drawn) stands 0.0126 µM [rising, full curve, poor fit].
For `Cc1ccc(C=Nc2ccc(N(C)C)cc2)o1` the value was 0.251 µM [falling, full curve]; for `Cc1ccc(NC(=O)c2c(C)oc3ncnc(N4CCCCC4)c23)c(C)c1`, 12.6 µM [falling, partial curve].
For `CC(Oc1ccccc1F)C(=O)NCC1(N2CCOCC2)CCCCC1` (stereo not drawn) the value was 31.6 µM [falling, single point]; for `Cc1ccc(C)c(Cn2nnc3c(=O)[nH]c(C4CCCN(C(=O)C5CCCCC5)C4)nc32)c1` (stereo not drawn), 20 µM [falling, single point].
On to `CC(C)CN(CC(C)C)c1nnc(NC(=O)Nc2cccc(C(F)(F)F)c2)s1`, for which the AC50 is 25.1 µM [falling, partial curve].
For `COc1ccc(OCC(=O)Nc2ccc3c(c2)N(C)C(=O)c2ccccc2S3)cc1` the value was 20 µM [falling, partial curve]; for `COc1ccc(-c2cc(C(=O)Nc3c(C(=O)c4ccc(C)c(F)c4)oc4ccccc34)no2)cc1`, 3.98 µM [rising, full curve, poor fit].
